We go through 1 molecule from paper PMC4026351.

For the assay, the target named is T1, colicin E3 immunity protein (ImmE3) with a C-terminal His6 tag (E. coli) (UniProt P02984).
T1 sequence: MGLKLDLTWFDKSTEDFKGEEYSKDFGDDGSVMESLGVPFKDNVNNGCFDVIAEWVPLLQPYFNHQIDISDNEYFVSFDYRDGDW
Description: co-purification by affinity chromatography; colicin co-expressed with its immunity protein carrying a C-terminal His6 tag in BL21(DE3); complex purified by affinity chromatography through the tag (Ni-NTA).

No constants are given. Whether binding was seen depends on the method and setting. Some results given as binding are weak or reduced against the parent protein; the word gives no strength. Sequences can lack the tags named with a protein.

B1: hybrid colicin E2/colicin E3 (protein, UniProt P04419 1-456; P00646 455-551)
chain: MSGGDGRGHNTGAHSTSGNINGGPTGLGVGGGASDGSGWSSENNPWGGGSGSGIHWGGGSGHGNGGGNGNSGGGSGTGGNLSAVAAPVAFGFPALSTPGAGGLAVSISAGALSAAIADIMAALKGPFKFGLWGVALYGVLPSQIAKDDPNMMSKIVTSLPADDITESPVSSLPLDKATVNVNVRVVDDVKDERQNISVVSGVPMSVPVVDAKPTERPGVFTASIPGAPVLNISVNNSTPEVQTLSPGVTNNTDKDVRPAGFTQGGNTRDAVIRFPKDSGHNAVYVSVSDVLSPDQVKQRQDEENRRQQEWDATHPVEAAERNYERARAELNQANEDVARNQERQAKAVQVYNSRKSELDAANKTLADAIAEIKQFNRFAHDPMAGGHRMWQMAGLKAQRAQTDVNNKQAAFDAAAKEKSDADAALSAAQERRKQKENKEKDAKDKLDKESKRNKPGKGFKDYGHDYHPAPKTENIKGLGDLKPGIPKTPKQNGGGKRKRWTGDKGRKIYEWDSQHGELEGYRASDGQHLGSFDPKTGNQLKGPDPKRNIKKYL
B1: the binding result is listed as “binds”.
